Reference: article PMC3034716
Results are given in words; binding and its absence hold for the method and conditions named. Some binding calls cover weakened binding; strength is not graded here.

By UniProt entry, the sequences of proteins in these tests, tags left out. Where a name states a change or a piece, a line headed by the entry shows the natural chain unless it says otherwise. Residues count along the entry.
UniProt P07237, residues 18-508: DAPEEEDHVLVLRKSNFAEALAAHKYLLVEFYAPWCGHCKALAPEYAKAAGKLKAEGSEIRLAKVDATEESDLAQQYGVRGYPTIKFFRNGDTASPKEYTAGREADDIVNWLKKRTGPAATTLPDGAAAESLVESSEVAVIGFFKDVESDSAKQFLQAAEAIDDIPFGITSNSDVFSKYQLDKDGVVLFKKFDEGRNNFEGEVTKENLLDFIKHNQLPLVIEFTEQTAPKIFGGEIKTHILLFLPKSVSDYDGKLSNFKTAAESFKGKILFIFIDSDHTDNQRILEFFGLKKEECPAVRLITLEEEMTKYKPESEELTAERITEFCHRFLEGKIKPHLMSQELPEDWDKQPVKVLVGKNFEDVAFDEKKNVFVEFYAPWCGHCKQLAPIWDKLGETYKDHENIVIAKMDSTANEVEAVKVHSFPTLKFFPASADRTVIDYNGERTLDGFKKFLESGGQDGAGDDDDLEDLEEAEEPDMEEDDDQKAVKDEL
UniProt P14625, residues 22-803: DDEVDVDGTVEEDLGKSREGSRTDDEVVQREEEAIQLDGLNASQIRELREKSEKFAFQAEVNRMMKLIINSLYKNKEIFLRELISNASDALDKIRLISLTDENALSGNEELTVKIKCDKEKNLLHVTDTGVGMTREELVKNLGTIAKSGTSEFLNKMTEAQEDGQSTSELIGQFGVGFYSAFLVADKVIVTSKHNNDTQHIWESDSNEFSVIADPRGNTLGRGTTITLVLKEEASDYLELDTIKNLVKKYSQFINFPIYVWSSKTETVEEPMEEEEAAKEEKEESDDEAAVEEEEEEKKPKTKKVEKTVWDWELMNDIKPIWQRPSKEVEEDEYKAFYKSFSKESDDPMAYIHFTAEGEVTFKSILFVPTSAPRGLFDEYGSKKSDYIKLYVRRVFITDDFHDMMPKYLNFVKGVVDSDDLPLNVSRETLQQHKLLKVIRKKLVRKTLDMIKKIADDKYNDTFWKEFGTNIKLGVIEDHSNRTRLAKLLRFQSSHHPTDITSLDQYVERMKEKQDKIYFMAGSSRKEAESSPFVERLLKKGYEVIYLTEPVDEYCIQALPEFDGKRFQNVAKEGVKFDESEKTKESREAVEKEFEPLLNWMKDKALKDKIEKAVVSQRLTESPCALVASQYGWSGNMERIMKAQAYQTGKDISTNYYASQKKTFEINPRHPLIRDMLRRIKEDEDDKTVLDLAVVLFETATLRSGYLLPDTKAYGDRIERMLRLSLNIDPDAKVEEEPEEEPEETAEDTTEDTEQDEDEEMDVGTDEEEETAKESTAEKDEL
UniProt P10809, residues 27-573: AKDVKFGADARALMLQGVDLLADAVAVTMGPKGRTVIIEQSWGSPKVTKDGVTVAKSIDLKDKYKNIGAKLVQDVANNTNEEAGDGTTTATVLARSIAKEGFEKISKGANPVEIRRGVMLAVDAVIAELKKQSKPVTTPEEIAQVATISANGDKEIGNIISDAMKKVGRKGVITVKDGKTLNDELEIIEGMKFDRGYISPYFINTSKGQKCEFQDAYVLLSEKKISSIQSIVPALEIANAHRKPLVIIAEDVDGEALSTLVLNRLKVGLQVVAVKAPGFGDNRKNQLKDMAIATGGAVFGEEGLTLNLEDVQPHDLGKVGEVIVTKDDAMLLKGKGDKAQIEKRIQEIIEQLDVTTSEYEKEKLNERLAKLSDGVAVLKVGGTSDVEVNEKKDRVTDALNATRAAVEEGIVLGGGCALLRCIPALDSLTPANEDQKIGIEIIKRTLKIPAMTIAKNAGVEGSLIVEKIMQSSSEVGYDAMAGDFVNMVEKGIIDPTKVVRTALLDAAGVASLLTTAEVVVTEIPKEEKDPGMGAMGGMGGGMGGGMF
UniProt P19483: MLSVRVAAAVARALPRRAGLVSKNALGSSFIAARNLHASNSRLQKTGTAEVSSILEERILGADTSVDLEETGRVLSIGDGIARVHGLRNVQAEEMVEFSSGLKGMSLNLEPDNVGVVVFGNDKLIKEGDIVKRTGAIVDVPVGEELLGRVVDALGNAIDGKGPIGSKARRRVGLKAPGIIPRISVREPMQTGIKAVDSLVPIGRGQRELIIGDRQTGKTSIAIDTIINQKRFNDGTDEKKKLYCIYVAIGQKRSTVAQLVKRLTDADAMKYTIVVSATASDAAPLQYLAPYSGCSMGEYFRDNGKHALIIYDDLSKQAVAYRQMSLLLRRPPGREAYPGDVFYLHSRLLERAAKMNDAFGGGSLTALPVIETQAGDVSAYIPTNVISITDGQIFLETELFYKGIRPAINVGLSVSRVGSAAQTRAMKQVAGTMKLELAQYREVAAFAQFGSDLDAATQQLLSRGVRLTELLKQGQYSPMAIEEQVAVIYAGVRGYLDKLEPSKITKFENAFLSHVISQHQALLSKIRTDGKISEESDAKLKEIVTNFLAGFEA

What was measured:
[1] = biological target: prolyl-4-hydroxylase β-subunit (HUVEC membrane-enriched proteins) (human (endogenous in HUVEC)) (UniProt P07237); assay: far-Western, overlay or dot blot; HUVEC membrane-enriched proteins resolved on bidimensional gels, blotted onto PVDF, incubated with 2 µg/ml recombinant hsp60, probed with anti-hsp60 mAb (clone LK-1); additional spots cut from a Coomassie-stained gel and identified by MALDI mass spectrometry; only the binder purified
[2] = biological target: gp96 (HUVEC membrane-enriched proteins) (human (endogenous in HUVEC)) (UniProt P14625); assay: as above
[3] = biological target: recombinant hsp60 (UniProt P10809); assay: SPR; Biacore X; recombinant hsp60 immobilised by amine coupling on a carboxymethyldextran chip (~10ng/mm^2); purified bovine ATP synthase injected at 10 µl/min in increasing amounts; 10mM HEPES, 150mM NaCl, 2mM EDTA; blank flow cell subtracted; both purified

Row | binding [1] | binding [2] | binding [3] | Substance
1 | binds | binds | – | recombinant hsp60 (from UniProt P10809 27-573)
2 | – | – | binds | purified bovine ATP synthase complex (from UniProt P19483 44-553; P00829 47-528; P05631 26-298)
